Values quoted from earlier work, collected in US20220008402A1, “INCREASED E-CADHERIN EXPRESSION OR ACTIVITY FOR THE TREATMENT OF INFLAMMATORY DISEASES” (The Cleveland Clinic Foundation, priority 2020, published 2022).
At least one structure is not confirmed: it was looked up by name or label, or the drawing left a doubt.

Tested on: E-cadherin
Settings: literature reports; cited from earlier work

COc1ccc(-c2coc3cc(O)ccc3c2=O)cc1 [Formononetin]
E-cadherin expression: stimulate E-cadherin expression
